Assay results: the supplement of paper PMC10849652
The list shows a part of the results.

Protein sequences, listed by entry. Tags and fused reporters are not part of them. Lines headed by an entry give the natural chain unless they say otherwise; changes in a name come on top.
UniProt Q9P0P8: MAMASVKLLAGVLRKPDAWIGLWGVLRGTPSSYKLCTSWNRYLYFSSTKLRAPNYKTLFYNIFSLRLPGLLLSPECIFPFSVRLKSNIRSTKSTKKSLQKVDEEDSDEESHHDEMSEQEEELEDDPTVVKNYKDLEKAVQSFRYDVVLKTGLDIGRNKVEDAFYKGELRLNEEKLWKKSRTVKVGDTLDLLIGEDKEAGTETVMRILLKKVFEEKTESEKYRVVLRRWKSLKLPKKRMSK
UniProt P03891, whole entry, looked up: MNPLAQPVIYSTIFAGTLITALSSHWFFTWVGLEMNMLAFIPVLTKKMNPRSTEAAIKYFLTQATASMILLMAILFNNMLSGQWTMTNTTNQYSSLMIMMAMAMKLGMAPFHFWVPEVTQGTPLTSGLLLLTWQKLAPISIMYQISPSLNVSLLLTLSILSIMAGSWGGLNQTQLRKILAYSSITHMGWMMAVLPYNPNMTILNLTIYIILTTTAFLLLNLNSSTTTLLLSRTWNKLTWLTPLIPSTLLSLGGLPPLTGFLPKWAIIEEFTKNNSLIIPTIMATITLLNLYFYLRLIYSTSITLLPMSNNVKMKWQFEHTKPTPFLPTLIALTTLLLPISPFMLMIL
UniProt Q9H2K0, whole entry, looked up: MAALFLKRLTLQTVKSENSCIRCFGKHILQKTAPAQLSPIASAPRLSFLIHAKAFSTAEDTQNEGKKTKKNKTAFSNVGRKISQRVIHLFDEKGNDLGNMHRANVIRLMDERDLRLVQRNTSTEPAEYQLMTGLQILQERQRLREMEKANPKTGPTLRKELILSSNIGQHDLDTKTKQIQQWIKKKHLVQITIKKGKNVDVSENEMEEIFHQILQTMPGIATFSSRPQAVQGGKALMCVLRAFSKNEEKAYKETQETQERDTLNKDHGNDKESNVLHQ
UniProt P20585: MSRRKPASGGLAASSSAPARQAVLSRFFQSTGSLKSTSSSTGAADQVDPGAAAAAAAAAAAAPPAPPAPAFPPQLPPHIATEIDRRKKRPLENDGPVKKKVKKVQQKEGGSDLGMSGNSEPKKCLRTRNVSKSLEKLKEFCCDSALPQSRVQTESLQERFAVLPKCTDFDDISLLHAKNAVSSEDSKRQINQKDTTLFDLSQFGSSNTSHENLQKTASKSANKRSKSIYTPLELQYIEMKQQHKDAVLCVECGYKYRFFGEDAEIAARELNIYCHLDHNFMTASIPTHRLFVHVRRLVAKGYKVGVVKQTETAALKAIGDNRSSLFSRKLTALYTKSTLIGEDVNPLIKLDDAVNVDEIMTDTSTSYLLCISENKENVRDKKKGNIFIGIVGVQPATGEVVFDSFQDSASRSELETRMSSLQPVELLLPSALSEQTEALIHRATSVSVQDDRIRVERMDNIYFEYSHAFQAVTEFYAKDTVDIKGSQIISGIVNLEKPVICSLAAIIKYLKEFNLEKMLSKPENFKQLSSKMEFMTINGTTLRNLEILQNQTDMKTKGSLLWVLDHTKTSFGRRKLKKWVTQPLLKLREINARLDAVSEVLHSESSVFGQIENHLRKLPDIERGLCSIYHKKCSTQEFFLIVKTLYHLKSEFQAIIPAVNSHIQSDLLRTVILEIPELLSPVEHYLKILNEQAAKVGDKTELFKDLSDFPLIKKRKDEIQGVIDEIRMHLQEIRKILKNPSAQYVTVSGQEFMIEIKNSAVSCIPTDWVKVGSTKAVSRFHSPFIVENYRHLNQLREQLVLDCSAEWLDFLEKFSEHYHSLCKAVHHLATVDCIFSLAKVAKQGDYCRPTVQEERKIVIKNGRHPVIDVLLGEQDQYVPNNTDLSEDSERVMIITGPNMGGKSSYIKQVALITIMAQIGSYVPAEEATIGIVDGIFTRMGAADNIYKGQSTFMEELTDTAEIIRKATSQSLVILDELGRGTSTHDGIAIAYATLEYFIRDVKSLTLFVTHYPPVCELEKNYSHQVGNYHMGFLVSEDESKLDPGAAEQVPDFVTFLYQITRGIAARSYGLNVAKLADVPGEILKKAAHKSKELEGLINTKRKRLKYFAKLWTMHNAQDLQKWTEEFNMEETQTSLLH

Legend:
Assay in all cases: log2 fold change, soluble protein after heating vs DMSO (PISA); higher = thermal stabilisation; K562 lysate, 10 uM; active = over 0.2 and 3.5 SD of the protein, either way, in both replicates (recomputed)
ibrutinib = compound: C=CC(=O)N1CCC[C@@H](n2nc(-c3ccc(Oc4ccccc4)cc3)c3c(N)ncnc32)C1 [ibrutinib]
How it was run: (§1)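 The values are log-two fold changes in thermal stability compared with solvent controls and come from duplicates. They were obtained by TMTpro 16plex LC-MS/MS, with channel sums equalised, on the supernatant after 21,000xg for 90 min. That supernatant came from crude K562 extract at 1 mg/mL protein treated with 10 μM compound for 30 min, heated for 3 min across 48°C-58°C, pooled and brought to 0.5% NP-40 at 4°C.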

[1] = compound: CC(=O)c1cnc2ccc(-c3cc(Cl)c(O)c(Cl)c3)nc2c1N[C@H]1CC[C@H](CN(C)C)CC1
How it was run: as §1

ralimetinib = compound: CC(C)(C)Cn1c(N)nc2ccc(-c3[nH]c(C(C)(C)C)nc3-c3ccc(F)cc3)nc21 [ralimetinib]
How it was run: as §1

[2] = compound: CC(C)(O)CC(=O)NCCn1ccc2ncnc(Nc3ccc(Oc4cccc(C(F)(F)F)c4)c(Cl)c3)c21
How it was run: as §1

[3] = compound: CC(C)C1=C2N=C(C=C(N2N=C1)NCC3=CC=CC=C3)NCCCCCCN
How it was run: as §1

[4] = compound: CC1=C(C(CC(=O)N1)C2=CC=C(C=C2)C(F)(F)F)C(=O)NC3=C(C=C4C(=C3)C=NN4)F
How it was run: as §1

[5] = compound: CC1=C(C2=C(C=C1)C(=O)C3=CC=CC=C3N2CCCN)C
How it was run: as §1

[6] = compound: CC1=C(C=C(C=C1)NC(=O)C2=CC(=CC=C2)C(C)(C)C#N)NC3=CC4=C(C=C3)N=CN(C4=O)C
How it was run: as §1

[7] = compound: CC1=C(C=C(C=C1)NC(=O)C2=CC(=CC=C2)N(C)C)NC(=O)C3=CC=C(C=C3)O
How it was run: as §1

[8] = compound: CC1=CC=C(C=C1)SC2=C3C=C(SC3=CN=C2)C(=O)N
How it was run: as §1

vemurafenib = compound: CCCS(=O)(=O)Nc1ccc(F)c(C(=O)c2c[nH]c3ncc(-c4ccc(Cl)cc4)cc23)c1F [vemurafenib]
How it was run: as §1

[9] = compound: CCCS(=O)(=O)Nc1ccc(F)c(C(=O)c2c[nH]c3ncc(Cl)cc23)c1F
How it was run: as §1

barasertib = compound: CCN(CCCOc1ccc2c(Nc3cc(CC(=O)Nc4cccc(F)c4)[nH]n3)ncnc2c1)CCOP(=O)(O)O [barasertib]
How it was run: as §1

[10] = compound: CC[C@@H]1C(=O)N(C)c2cnc(Nc3ccc(C(=O)NC4CCN(C)CC4)cc3OC)nc2N1C1CCCC1
How it was run: as §1

volasertib = compound: CC[C@@H]1C(=O)N(C)c2cnc(Nc3ccc(C(=O)N[C@H]4CC[C@H](N5CCN(CC6CC6)CC5)CC4)cc3OC)nc2N1C(C)C [volasertib]
How it was run: as §1

[11] = compound: CCn1c(C(=O)N(C2CC2)C2CC2)cc2c3c(ncn3C)c(Nc3cc(C)n(C)n3)nc21
How it was run: as §1

saracatinib = compound: CN1CCN(CCOc2cc(OC3CCOCC3)c3c(Nc4c(Cl)ccc5c4OCO5)ncnc3c2)CC1 [saracatinib]
How it was run: as §1

sotrastaurin = compound: CN1CCN(c2nc(C3=C(c4c[nH]c5ccccc45)C(=O)NC3=O)c3ccccc3n2)CC1 [sotrastaurin]
How it was run: as §1

[12] = compound: CCn1cc(-c2ccnc3[nH]c(-c4cccc(CN(C)C)c4)cc23)c(-c2ccc(NC(=O)N(C)C)cc2)n1
How it was run: as §1

[13] = compound: CN1CCC(CNc2ccc3ncc(-c4cccc(OC(F)(F)F)c4)n3n2)CC1
How it was run: as §1

Measured: log2 fold change

MTRES1 (UniProt Q9P0P8)
inactive: ibrutinib -0.06 | [1] -0.042 | ralimetinib 0.003 | [2] 0.035 | [3] -0.051 | [4] 0.091 | [5] -0.093 | [6] 0.027 | [7] 0.033 | [8] -0.011 | vemurafenib -0.055 | [9] 0.018 | barasertib -0.038 | [10] -0.189 | volasertib -0.061 | [11] 0 | saracatinib -0.088 | sotrastaurin 0.011

MT-ND2 (UniProt P03891)
inactive: ibrutinib -0.014 | [1] 0.061 | ralimetinib 0.035 | [2] -0.034 | [3] 0.026 | [4] -0.004 | [5] 0 | [6] -0.106 | [7] -0.078 | [8] 0.151 | vemurafenib -0.097 | [9] 0.015 | barasertib -0.035 | [10] -0.157 | volasertib -0.008 | [11] 0.068 | [12] -0.12 | [13] -0.054 | saracatinib 0.04 | sotrastaurin -0.073

MTDH (UniProt E5RJU9)
inactive: ibrutinib -0.047 | [1] -0.246 | ralimetinib -0.128 | [2] -0.136 | [3] 0.117 | [4] -0.115 | [5] -0.213 | [6] -0.025 | [7] -0.001 | [8] 0.028 | vemurafenib 0.133 | [9] -0.307 | barasertib -0.102 | [10] -0.018 | volasertib -0.185 | [11] 0.053 | [12] -0.133 | [13] -0.051 | saracatinib 0.063 | sotrastaurin 0.102

MTIF3 (UniProt Q9H2K0)
inactive: ibrutinib 0.02 | [1] -0.001 | ralimetinib -0.031 | [2] -0.023 | [3] -0.088 | [4] -0.049 | [5] 0.011 | [7] -0.019 | [8] -0.049 | vemurafenib 0.073 | [9] 0.012 | barasertib 0.055 | volasertib 0.082 | [11] -0.017 | [12] -0.013 | [13] 0.009 | saracatinib 0.011

MRPL47 (UniProt Q9HD33)
inactive: ibrutinib 0.062 | [1] -0.069 | ralimetinib 0.041 | [2] 0.016 | [3] 0.036 | [4] 0.052 | [5] -0.036 | [6] -0.047 | [7] -0.01 | [8] 0.07 | vemurafenib -0.01 | [9] 0.02 | barasertib 0.07 | [10] -0.016 | volasertib -0.099 | [11] 0.068 | [12] 0.035 | [13] -0.037 | saracatinib -0.007 | sotrastaurin 0.041

MRPS24 (UniProt Q96EL2)
inactive: ibrutinib 0.032 | [1] 0.054 | ralimetinib 0.051 | [2] -0.001 | [3] 0.027 | [4] -0.051 | [5] -0.145 | [6] -0.063 | [7] 0.011 | [8] 0.072 | vemurafenib 0 | [9] -0.004 | barasertib 0.05 | [10] -0.122 | volasertib -0.015 | [11] 0.011 | [12] -0.158 | [13] 0.114 | saracatinib 0.107 | sotrastaurin 0.04

MRPL53 (UniProt Q96EL3)
inactive: ibrutinib 0.041 | [1] -0.018 | ralimetinib 0.062 | [2] -0.047 | [3] 0.016 | [4] -0.047 | [5] 0.011 | [6] 0.042 | [7] 0.044 | [8] 0.011 | vemurafenib -0.006 | [9] -0.01 | barasertib 0.032 | [10] 0.069 | volasertib 0.057 | [11] -0.017 | [12] 0.013 | [13] -0.019 | saracatinib -0.003 | sotrastaurin -0.021

MSH3 (UniProt P20585)
inactive: ibrutinib 0 | [1] -0.017 | ralimetinib 0.024 | [2] -0.037 | [3] -0.039 | [4] 0.023 | [5] -0.025 | [6] -0.018 | [7] -0.007 | [8] -0.005 | vemurafenib -0.004 | [9] 0.048 | barasertib -0.001 | [10] 0.036 | volasertib -0.031 | [11] -0.034 | [12] -0.025 | [13] 0.031 | saracatinib 0.038 | sotrastaurin 0.039
